Measured values from article PMC3561343.

Protein sequences, listed by entry. Tags and fused reporters are not part of them.
UniProt P11142: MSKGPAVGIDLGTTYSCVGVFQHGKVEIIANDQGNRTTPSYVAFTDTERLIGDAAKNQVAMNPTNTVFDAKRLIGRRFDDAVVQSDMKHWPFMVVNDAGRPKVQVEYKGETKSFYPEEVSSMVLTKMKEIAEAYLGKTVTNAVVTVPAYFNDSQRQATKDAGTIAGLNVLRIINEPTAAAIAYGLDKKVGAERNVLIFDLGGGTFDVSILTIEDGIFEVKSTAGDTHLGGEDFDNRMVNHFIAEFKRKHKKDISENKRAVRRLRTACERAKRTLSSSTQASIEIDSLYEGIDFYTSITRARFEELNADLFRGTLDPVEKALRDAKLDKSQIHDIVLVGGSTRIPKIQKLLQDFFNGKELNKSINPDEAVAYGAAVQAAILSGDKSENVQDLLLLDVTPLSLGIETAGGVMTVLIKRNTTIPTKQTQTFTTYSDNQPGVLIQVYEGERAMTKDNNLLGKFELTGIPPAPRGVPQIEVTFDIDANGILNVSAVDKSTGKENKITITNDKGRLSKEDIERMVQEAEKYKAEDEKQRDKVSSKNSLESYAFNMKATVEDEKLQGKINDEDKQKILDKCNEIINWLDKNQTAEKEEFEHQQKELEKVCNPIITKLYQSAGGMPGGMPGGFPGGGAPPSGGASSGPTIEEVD
UniProt P31749: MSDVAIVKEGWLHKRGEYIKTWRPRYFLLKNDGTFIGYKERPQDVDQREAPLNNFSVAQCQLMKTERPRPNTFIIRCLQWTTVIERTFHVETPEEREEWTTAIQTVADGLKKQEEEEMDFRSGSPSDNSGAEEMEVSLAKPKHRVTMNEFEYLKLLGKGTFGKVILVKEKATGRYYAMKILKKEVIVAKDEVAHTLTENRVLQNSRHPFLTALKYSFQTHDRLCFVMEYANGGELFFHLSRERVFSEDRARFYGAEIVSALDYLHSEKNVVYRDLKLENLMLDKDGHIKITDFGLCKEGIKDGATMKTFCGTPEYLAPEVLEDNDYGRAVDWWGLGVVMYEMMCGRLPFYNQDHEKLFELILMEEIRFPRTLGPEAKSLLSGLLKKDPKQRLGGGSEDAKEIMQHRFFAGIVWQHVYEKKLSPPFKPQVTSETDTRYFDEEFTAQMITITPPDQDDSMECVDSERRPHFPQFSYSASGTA
UniProt P68371: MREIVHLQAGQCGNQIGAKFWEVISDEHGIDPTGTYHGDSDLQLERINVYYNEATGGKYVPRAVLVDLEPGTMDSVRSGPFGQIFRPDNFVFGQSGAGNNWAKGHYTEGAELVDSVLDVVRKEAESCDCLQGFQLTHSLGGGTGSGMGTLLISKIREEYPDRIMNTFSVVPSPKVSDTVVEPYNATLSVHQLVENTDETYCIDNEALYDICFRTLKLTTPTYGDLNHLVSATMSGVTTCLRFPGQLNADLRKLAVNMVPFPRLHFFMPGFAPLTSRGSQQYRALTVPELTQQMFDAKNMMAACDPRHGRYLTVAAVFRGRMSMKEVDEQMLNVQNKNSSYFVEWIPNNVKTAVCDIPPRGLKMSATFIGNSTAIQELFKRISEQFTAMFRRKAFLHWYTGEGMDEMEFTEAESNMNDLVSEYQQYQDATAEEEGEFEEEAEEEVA
UniProt P0DMV8: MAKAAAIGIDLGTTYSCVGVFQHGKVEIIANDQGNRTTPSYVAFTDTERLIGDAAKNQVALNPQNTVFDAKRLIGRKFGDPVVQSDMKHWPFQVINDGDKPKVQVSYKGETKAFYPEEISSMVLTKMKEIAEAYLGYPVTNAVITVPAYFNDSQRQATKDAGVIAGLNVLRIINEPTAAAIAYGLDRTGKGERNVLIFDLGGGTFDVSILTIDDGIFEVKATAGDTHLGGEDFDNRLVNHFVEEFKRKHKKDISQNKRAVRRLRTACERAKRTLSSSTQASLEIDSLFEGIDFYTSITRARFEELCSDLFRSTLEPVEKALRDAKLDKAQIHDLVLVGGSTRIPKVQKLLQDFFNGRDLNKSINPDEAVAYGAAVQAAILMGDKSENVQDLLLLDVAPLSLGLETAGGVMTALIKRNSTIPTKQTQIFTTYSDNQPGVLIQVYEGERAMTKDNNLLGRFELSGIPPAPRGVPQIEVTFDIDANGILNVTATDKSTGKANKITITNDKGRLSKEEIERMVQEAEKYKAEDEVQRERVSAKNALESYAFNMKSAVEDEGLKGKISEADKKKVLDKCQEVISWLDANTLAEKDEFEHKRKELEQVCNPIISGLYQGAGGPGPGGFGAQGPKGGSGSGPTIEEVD
UniProt P07437: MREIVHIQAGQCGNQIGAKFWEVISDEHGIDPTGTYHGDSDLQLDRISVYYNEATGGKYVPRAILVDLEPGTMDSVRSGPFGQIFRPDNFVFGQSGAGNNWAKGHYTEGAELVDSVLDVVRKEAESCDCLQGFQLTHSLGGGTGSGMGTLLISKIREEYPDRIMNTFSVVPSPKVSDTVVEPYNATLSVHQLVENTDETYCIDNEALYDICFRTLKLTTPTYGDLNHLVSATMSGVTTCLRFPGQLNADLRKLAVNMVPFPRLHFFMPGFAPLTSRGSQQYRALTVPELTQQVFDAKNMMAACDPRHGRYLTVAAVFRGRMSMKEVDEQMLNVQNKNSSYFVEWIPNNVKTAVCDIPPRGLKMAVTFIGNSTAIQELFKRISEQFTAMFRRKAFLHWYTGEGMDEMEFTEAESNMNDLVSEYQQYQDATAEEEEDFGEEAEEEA
UniProt Q00987: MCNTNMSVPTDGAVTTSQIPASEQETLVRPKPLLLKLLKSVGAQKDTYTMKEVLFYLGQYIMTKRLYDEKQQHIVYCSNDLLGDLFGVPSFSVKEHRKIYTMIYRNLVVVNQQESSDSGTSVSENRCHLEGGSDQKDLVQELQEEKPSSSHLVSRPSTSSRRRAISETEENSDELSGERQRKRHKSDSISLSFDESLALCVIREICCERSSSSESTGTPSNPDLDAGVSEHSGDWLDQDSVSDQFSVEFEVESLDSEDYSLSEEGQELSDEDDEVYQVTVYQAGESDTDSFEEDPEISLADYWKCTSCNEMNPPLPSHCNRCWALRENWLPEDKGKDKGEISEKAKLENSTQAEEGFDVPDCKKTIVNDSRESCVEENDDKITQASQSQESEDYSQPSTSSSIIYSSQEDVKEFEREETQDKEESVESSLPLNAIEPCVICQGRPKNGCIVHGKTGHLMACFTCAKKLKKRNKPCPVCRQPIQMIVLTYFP
UniProt Q07812: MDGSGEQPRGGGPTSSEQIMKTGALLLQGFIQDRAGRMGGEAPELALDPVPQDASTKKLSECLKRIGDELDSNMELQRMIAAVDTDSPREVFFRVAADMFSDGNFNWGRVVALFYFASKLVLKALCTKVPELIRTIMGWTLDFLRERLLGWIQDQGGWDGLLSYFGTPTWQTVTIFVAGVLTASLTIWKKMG
UniProt P34931: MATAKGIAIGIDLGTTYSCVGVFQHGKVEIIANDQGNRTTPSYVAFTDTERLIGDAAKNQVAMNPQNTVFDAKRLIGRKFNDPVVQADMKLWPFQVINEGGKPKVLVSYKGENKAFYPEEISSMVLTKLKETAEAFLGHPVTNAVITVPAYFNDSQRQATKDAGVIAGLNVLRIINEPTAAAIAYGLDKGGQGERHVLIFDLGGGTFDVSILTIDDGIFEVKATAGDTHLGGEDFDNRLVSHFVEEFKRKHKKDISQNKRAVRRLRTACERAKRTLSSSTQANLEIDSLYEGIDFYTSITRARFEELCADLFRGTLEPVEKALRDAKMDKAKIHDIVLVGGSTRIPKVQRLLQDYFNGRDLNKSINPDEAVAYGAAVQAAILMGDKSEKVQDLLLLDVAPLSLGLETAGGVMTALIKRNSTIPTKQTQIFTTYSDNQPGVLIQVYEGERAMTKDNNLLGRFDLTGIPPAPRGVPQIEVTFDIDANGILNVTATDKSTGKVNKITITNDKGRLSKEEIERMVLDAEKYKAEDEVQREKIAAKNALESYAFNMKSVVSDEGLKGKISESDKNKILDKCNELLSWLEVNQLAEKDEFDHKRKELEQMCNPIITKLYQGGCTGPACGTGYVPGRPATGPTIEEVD
UniProt P08238: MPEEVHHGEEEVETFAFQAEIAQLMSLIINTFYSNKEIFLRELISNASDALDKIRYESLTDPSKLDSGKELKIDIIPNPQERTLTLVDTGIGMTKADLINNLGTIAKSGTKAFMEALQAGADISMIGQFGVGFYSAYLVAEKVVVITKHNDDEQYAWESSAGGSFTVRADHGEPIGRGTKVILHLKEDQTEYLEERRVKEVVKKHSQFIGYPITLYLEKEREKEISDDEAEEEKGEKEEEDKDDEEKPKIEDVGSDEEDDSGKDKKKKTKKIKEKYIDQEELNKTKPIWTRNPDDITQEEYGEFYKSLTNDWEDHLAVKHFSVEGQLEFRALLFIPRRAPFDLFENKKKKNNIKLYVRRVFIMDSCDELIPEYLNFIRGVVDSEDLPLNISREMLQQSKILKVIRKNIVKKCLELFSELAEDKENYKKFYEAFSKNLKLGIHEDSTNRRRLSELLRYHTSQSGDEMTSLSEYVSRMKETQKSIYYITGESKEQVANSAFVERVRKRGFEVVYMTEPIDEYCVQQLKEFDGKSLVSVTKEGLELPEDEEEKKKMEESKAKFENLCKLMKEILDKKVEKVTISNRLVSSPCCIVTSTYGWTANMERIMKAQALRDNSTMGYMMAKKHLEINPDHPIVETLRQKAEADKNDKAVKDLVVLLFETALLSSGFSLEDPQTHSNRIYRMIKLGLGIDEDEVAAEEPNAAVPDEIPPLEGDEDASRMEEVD
UniProt P08670: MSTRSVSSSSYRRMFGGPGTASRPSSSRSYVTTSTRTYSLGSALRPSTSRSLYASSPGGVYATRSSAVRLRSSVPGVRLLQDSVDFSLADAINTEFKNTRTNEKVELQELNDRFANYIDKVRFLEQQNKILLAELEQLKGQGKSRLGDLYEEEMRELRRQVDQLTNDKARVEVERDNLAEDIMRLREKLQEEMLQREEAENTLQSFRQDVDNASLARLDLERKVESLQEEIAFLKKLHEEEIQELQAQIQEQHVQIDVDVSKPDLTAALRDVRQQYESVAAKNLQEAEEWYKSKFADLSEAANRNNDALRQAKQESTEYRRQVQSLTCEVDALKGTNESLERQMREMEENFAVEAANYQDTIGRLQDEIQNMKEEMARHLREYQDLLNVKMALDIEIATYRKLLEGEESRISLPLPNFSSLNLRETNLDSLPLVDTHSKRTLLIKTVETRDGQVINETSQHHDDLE

Target: VCP-Flag (valosin-containing protein, wild type) (UniProt P55072)
Assay: affinity purification with mass spectrometry; AGS cells with adenoviral VCP-Flag or empty vector, 10 µM MG-132 3 hr, H. pylori 6 hr; lysate (25 mM Tris pH 7.5, 150 mM NaCl, 1% NP-40) on anti-Flag M2 affinity gel overnight at 4°C; eluate on 10% SDS-PAGE, in-gel trypsin digestion, LC-MS/MS (LTQ-Orbitrap); proteins also found with empty vector subtracted

| Molecule | binding |
| --- | --- |
| HSPA8 (from UniProt P11142 1-646) | binds |
| Akt (from UniProt P31749 1-480) | binds |
| TUBB2C (from UniProt P68371 1-445) | binds |
| HSPA1A/HSPA1B (from UniProt P0DMV8 1-641) | binds |
| TUBB (from UniProt P07437 1-444) | binds |
| MDM2 (from UniProt Q00987 1-491) | binds |
| BAX (from UniProt Q07812 1-192) | binds |
| HSPA1L (from UniProt P34931 1-641) | binds |
| HSP90AB1 (from UniProt P08238 1-724) | binds |
| VIM (from UniProt P08670 1-466) | binds |
| programmed cell death 4 (PDCD4) (protein, UniProt Q53EL6 1-469) MDVENEQILNVNPADPDNLSDSLFSGDEENAGTEEIKNEINGNWISASSINEARINAKAKRRLRKNSSRDSGRGDSVSDSGSDALRSGLTVPTSPKGRLLDRRSRSGKGRGLPKKGGAGGKGVWGTPGQVYDVEEVDVKDPNYDDDQENCVYETVVLPLDERAFEKTLTPIIQEYFEHGDTNEVAEMLRDLNLGEMKSGVPVLAVSLALEGKASHREMTSKLLSDLCGTVMSTTDVEKSFDKLLKDLPELALDTPRAPQLVGQFIARAVGDGILCNTYIDSYKGTVDCVQARAALDKATVLLSMSKGGKRKDSVWGSGGGQQSVNHLVKEIDMLLKEYLLSGDISEAEHCLKELEVPHFHHELVYEAIIMVLESTGESTFKMILDLLKSLWKSSTITVDQMKRGYERIYNEIPDINLDVPHSYSVLERFVEECFQAGIISKQLRDLCPSRGRKRFVSEGDGGRLKPESY | binds |
| NFKB2 (protein, UniProt Q00653 1-900) MESCYNPGLDGIIEYDDFKLNSSIVEPKEPAPETADGPYLVIVEQPKQRGFRFRYGCEGPSHGGLPGASSEKGRKTYPTVKICNYEGPAKIEVDLVTHSDPPRAHAHSLVGKQCSELGICAVSVGPKDMTAQFNNLGVLHVTKKNMMGTMIQKLQRQRLRSRPQGLTEAEQRELEQEAKELKKVMDLSIVRLRFSAFLRASDGSFSLPLKPVISQPIHDSKSPGASNLKISRMDKTAGSVRGGDEVYLLCDKVQKDDIEVRFYEDDENGWQAFGDFSPTDVHKQYAIVFRTPPYHKMKIERPVTVFLQLKRKRGGDVSDSKQFTYYPLVEDKEEVQRKRRKALPTFSQPFGGGSHMGGGSGGAAGGYGGAGGGGSLGFFPSSLAYSPYQSGAGPMGCYPGGGGGAQMAATVPSRDSGEEAAEPSAPSRTPQCEPQAPEMLQRAREYNARLFGLAQRSARALLDYGVTADARALLAGQRHLLTAQDENGDTPLHLAIIHGQTSVIEQIVYVIHHAQDLGVVNLTNHLHQTPLHLAVITGQTSVVSFLLRVGADPALLDRHGDSAMHLALRAGAGAPELLRALLQSGAPAVPQLLHMPDFEGLYPVHLAVRARSPECLDLLVDSGAEVEATERQGGRTALHLATEMEELGLVTHLVTKLRANVNARTFAGNTPLHLAAGLGYPTLTRLLLKAGADIHAENEEPLCPLPSPPTSDSDSDSEGPEKDTRSSFRGHTPLDLTCSTKVKTLLLNAAQNTMEPPLTPPSPAGPGLSLGDTALQNLEQLLDGPEAQGSWAELAERLGLRSLVDTYRQTTSPSGSLLRSYELAGGDLAGLLEALSDMGLEEGVRLLRGPETRDKLPSTAEVKEDSAYGSQSVEQEAEKLGPPPEPPGGLCHGHPQPQVH | binds |

No constants are given. Whether binding was seen depends on the method and setting. In cells and extracts the contact can be indirect. Here binding means that the protein was enriched with, or labelled near, the bait; the list need not be complete.
